# Measurements reported in the supplement of paper PMC8728848.
# The other results are listed elsewhere or left out.
# B1: FimA (Actinomyces oris) (protein)
# chain: MHHHHHHSSGVDLGTENLYFQSNAETPNYGNIKTDATGSLVIHKHLTGGGKDIGTPTGTAQNADDKGPAVEGVVFTAYPITDINLKDPAGWDTISNLSRTGVPDSACANPAAPTLGAHQFGTPKVSPATTKEGLATITEMPVQAYLVCETTTPGDIVQKAKPFVVTIPHPNTAAGADGQWIYDVNVYPKNEAIDVDKTIQAQKLNGYGVGSLIKFPVESTAPTLDAKSFYKYFQLKDTLDERLSEVTATDVSLEGTPLQPTDYKVETKQQTVTVTFTAEGLKKIKAAPGKKVSAVFQGKVTKAGNGAITNRAQVISDTLYAEQPPTPETPPTDPENPPTSDEVISRWGDLSIKKVDTHQQGQTKAGLQGAQFQLYKAKNAYANTCSNEKEGAPIAINGQTTLTTDAQGAIDIKGLFISDSIDGADRDNQVNAMERCYVLVETKAPAGYVLPAGNGAATPVKVKAGEETTDNVTVENTKQSVPGLPLTG
# Key:
# Experiment in all cases: glycan array binding signal (z-score within array); higher = stronger binding
# Settings in all cases: glycan notation: IUPAC condensed, linker removed
# [1] = target: Neu5Ac(a2-3)Gal(b1-3)GlcNAc(b1-2)Man(a1-3)[GlcNAc(b1-4)][Neu5Ac(a2-3)Gal(b1-3)GlcNAc(b1-2)Man(a1-6)]Man(b1-4)GlcNAc(b1-4)GlcNAc
# Procedure, shortened: (§1)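 The binding signal is a Z-score computed within each array. Data were drawn from 3228 arrays in the Consortium for Functional Glycomics database, restricted to those with a known protein sequence. Scores were averaged over arrays of the same protein sequence at different concentrations or buffers, and over linkers, and negative values can be taken as non-binding.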
# [2] = target: Neu5Ac(a2-3)Gal(b1-3)GlcNAc(b1-2)Man(a1-3)[Neu5Ac(a2-3)Gal(b1-3)GlcNAc(b1-2)Man(a1-6)]Man(b1-4)GlcNAc(b1-4)GlcNAc
# Procedure, shortened: as §1
# [3] = target: Neu5Ac(a2-3)Gal(b1-3)GlcNAc(b1-3)Gal(b1-3)GlcNAc
# Procedure, shortened: as §1
# [4] = target: Neu5Ac(a2-3)Gal(b1-3)GlcNAc(b1-3)Gal(b1-4)GlcNAc
# Procedure, shortened: as §1
# [5] = target: Neu5Ac(a2-3)Gal(b1-3)GlcNAc(b1-3)GalNAc
# Procedure, shortened: as §1
# [6] = target: Neu5Ac(a2-3)Gal(b1-3)GlcNAc(b1-4)Gal(b1-4)Glc
# Procedure, shortened: as §1
# [7] = target: Neu5Ac(a2-3)Gal(b1-3)GlcNAc(b1-6)GalNAc
# Procedure, shortened: as §1
# [8] = target: Neu5Ac(a2-3)Gal(b1-3)GlcNAc6S
# Procedure, shortened: as §1
# [9] = target: Neu5Ac(a2-3)Gal(b1-3)[Fuc(a1-4)]GlcNAc
# Procedure, shortened: as §1
# [10] = target: Neu5Ac(a2-3)Gal(b1-3)[Fuc(a1-4)]GlcNAc(b1-3)Gal(b1-3)[Fuc(a1-4)]GlcNAc
# Procedure, shortened: as §1
# [11] = target: Neu5Ac(a2-3)Gal(b1-3)[Fuc(a1-4)]GlcNAc(b1-3)Gal(b1-4)[Fuc(a1-3)]GlcNAc
# Procedure, shortened: as §1
# [12] = target: Neu5Ac(a2-3)Gal(b1-3)[GlcNAc(b1-6)]GalNAc
# Procedure, shortened: as §1
# [13] = target: Neu5Ac(a2-3)Gal(b1-3)[Neu5Ac(a2-6)]GalNAc
# Procedure, shortened: as §1
# [14] = target: Neu5Ac(a2-3)Gal(b1-3)[Neu5Ac(a2-6)]GlcNAc(b1-3)[Fuc(a1-3)[Gal(b1-4)]GlcNAc(b1-6)]Gal(b1-4)Glc
# Procedure, shortened: as §1
# [15] = target: Neu5Ac(a2-3)Gal(b1-3)]Neu5Ac(a2-3)Gal(b1-4)]GlcNAc
# Procedure, shortened: as §1
# Neu5Ac(a2-3)Gal(b1-4)Glc = target: Neu5Ac(a2-3)Gal(b1-4)Glc
# Procedure, shortened: as §1
# [16] = target: Neu5Ac(a2-3)Gal(b1-4)GlcNAc
# Procedure, shortened: as §1
# [17] = target: Neu5Ac(a2-3)Gal(b1-4)GlcNAc(b1-2)Man
# Procedure, shortened: as §1
# [18] = target: Neu5Ac(a2-3)Gal(b1-4)GlcNAc(b1-2)Man(a1-3)[GlcNAc(b1-4)][Neu5Ac(a2-3)Gal(b1-4)GlcNAc(b1-2)Man(a1-6)]Man(b1-4)GlcNAc(b1-4)GlcNAc
# Procedure, shortened: as §1
# [19] = target: Neu5Ac(a2-3)Gal(b1-4)GlcNAc(b1-2)Man(a1-3)[Neu5Ac(a2-3)Gal(b1-4)GlcNAc(b1-2)Man(a1-6)]Man(b1-4)GlcNAc(b1-4)GlcNAc
# Procedure, shortened: as §1
# [20] = target: Neu5Ac(a2-3)Gal(b1-4)GlcNAc(b1-2)Man(a1-3)[Neu5Ac(a2-3)Gal(b1-4)GlcNAc(b1-2)Man(a1-6)]Man(b1-4)GlcNAc(b1-4)[Fuc(a1-6)]GlcNAc
# Procedure, shortened: as §1
# [21] = target: Neu5Ac(a2-3)Gal(b1-4)GlcNAc(b1-2)Man(a1-3)[Neu5Ac(a2-6)Gal(b1-4)GlcNAc(b1-2)Man(a1-6)]Man(b1-4)GlcNAc(b1-4)GlcNAc
# Procedure, shortened: as §1
# [22] = target: Neu5Ac(a2-3)Gal(b1-4)GlcNAc(b1-2)[Neu5Ac(a2-3)Gal(b1-4)GlcNAc(b1-4)]Man(a1-3)[GlcNAc(b1-4)][Neu5Ac(a2-3)Gal(b1-4)GlcNAc(b1-2)[Neu5Ac(a2-3)Gal(b1-4)GlcNAc(b1-6)]Man(a1-6)]Man(b1-4)GlcNAc(b1-4)GlcNAc
# Procedure, shortened: as §1
# [23] = target: Neu5Ac(a2-3)Gal(b1-4)GlcNAc(b1-2)[Neu5Ac(a2-3)Gal(b1-4)GlcNAc(b1-4)]Man(a1-3)[GlcNAc(b1-4)][Neu5Ac(a2-3)Gal(b1-4)GlcNAc(b1-4)Man(a1-6)]Man(b1-4)GlcNAc(b1-4)GlcNAc
# Procedure, shortened: as §1
# [24] = target: Neu5Ac(a2-3)Gal(b1-4)GlcNAc(b1-2)[Neu5Ac(a2-3)Gal(b1-4)GlcNAc(b1-6)]Man(a1-6)[Neu5Ac(a2-3)Gal(b1-4)GlcNAc(b1-2)Man(a1-3)]Man(b1-4)GlcNAc(b1-4)GlcNAc
# Procedure, shortened: as §1
# [25] = target: Neu5Ac(a2-3)Gal(b1-4)GlcNAc(b1-2)[Neu5Ac(a2-3)Gal(b1-4)GlcNAc(b1-6)]Man(a1-6)[Neu5Ac(a2-3)Gal(b1-4)GlcNAc(b1-2)Man(a1-3)][GlcNAc(b1-4)]Man(b1-4)GlcNAc(b1-4)GlcNAc
# Procedure, shortened: as §1
# [26] = target: Neu5Ac(a2-3)Gal(b1-4)GlcNAc(b1-3)Gal
# Procedure, shortened: as §1
# [27] = target: Neu5Ac(a2-3)Gal(b1-4)GlcNAc(b1-3)Gal(b1-3)GlcNAc
# Procedure, shortened: as §1
# [28] = target: Neu5Ac(a2-3)Gal(b1-4)GlcNAc(b1-3)Gal(b1-4)GlcNAc
# Procedure, shortened: as §1
# [29] = target: Neu5Ac(a2-3)Gal(b1-4)GlcNAc(b1-3)Gal(b1-4)GlcNAc(b1-2)Man(a1-3)[Neu5Ac(a2-3)Gal(b1-4)GlcNAc(b1-3)Gal(b1-4)GlcNAc(b1-2)Man(a1-6)]Man(b1-4)GlcNAc(b1-4)GlcNAc
# Procedure, shortened: as §1
# [30] = target: Neu5Ac(a2-3)Gal(b1-4)GlcNAc(b1-3)Gal(b1-4)GlcNAc(b1-3)Gal(b1-4)GlcNAc
# Procedure, shortened: as §1
# [31] = target: Neu5Ac(a2-3)Gal(b1-4)GlcNAc(b1-3)Gal(b1-4)GlcNAc(b1-3)Gal(b1-4)GlcNAc(b1-2)Man(a1-3)[Neu5Ac(a2-3)Gal(b1-4)GlcNAc(b1-3)Gal(b1-4)GlcNAc(b1-3)Gal(b1-4)GlcNAc(b1-2)Man(a1-6)]GalNAc
# Procedure, shortened: as §1
# [32] = target: Neu5Ac(a2-3)Gal(b1-4)GlcNAc(b1-3)Gal(b1-4)GlcNAc(b1-3)GalNAc
# Procedure, shortened: as §1
# [33] = target: Neu5Ac(a2-3)Gal(b1-4)GlcNAc(b1-3)Gal(b1-4)GlcNAc(b1-3)[Neu5Ac(a2-3)Gal(b1-4)GlcNAc(b1-3)Gal(b1-4)GlcNAc(b1-6)]GalNAc
# Procedure, shortened: as §1
# [34] = target: Neu5Ac(a2-3)Gal(b1-4)GlcNAc(b1-3)Gal(b1-4)GlcNAc(b1-6)[Gal(b1-3)]GalNAc
# Procedure, shortened: as §1
# [35] = target: Neu5Ac(a2-3)Gal(b1-4)GlcNAc(b1-3)Gal(b1-4)[Fuc(a1-3)]GlcNAc
# Procedure, shortened: as §1
# [36] = target: Neu5Ac(a2-3)Gal(b1-4)GlcNAc(b1-3)GalNAc
# Procedure, shortened: as §1
# [37] = target: Neu5Ac(a2-3)Gal(b1-4)GlcNAc(b1-3)[Neu5Ac(a2-3)Gal(b1-4)GlcNAc(b1-6)]GalNAc
# Procedure, shortened: as §1
binder,measurement,setting,value
B1,glycan array binding signal (z-score),[1],-0.298
same,glycan array binding signal (z-score),[2],-0.233
same,glycan array binding signal (z-score),[3],-0.254
same,glycan array binding signal (z-score),[4],-0.513
same,glycan array binding signal (z-score),[5],-0.515
same,glycan array binding signal (z-score),[6],0.409
same,glycan array binding signal (z-score),[7],-0.778
same,glycan array binding signal (z-score),[8],-0.22
same,glycan array binding signal (z-score),[9],2.89
same,glycan array binding signal (z-score),[10],-0.284
same,glycan array binding signal (z-score),[11],0.196
same,glycan array binding signal (z-score),[12],-0.273
same,glycan array binding signal (z-score),[13],-0.09
same,glycan array binding signal (z-score),[14],-0.358
same,glycan array binding signal (z-score),[15],-0.537
same,glycan array binding signal (z-score),Neu5Ac(a2-3)Gal(b1-4)Glc,-0.06
same,glycan array binding signal (z-score),[16],-0.025
same,glycan array binding signal (z-score),[17],-0.543
same,glycan array binding signal (z-score),[18],-0.312
same,glycan array binding signal (z-score),[19],-0.315
same,glycan array binding signal (z-score),[20],-0.389
same,glycan array binding signal (z-score),[21],-0.809
same,glycan array binding signal (z-score),[22],0.563
same,glycan array binding signal (z-score),[23],-0.539
same,glycan array binding signal (z-score),[24],-0.142
same,glycan array binding signal (z-score),[25],-0.527
same,glycan array binding signal (z-score),[26],0.18
same,glycan array binding signal (z-score),[27],-0.592
same,glycan array binding signal (z-score),[28],1.8
same,glycan array binding signal (z-score),[29],0.642
same,glycan array binding signal (z-score),[30],0.624
same,glycan array binding signal (z-score),[31],0.065
same,glycan array binding signal (z-score),[32],-0.901
same,glycan array binding signal (z-score),[33],-0.237
same,glycan array binding signal (z-score),[34],1.32
same,glycan array binding signal (z-score),[35],-0.822
same,glycan array binding signal (z-score),[36],-0.305
same,glycan array binding signal (z-score),[37],-0.289

# Two entries from above, bar-delimited:
binder | measurement | setting | value
B1 | glycan array binding signal (z-score) | [6] | 0.409
same | glycan array binding signal (z-score) | [7] | -0.778
